Measurements from US20040110707A1, “Method of treating neurological diseases” (priority 2001, published 2004).

Assay: HPLC analysis of endogenous retinoids in parts of the adult mouse brain
Settings: reverse phase HPLC

CC1=C(/C=C/C(C)=C/C=C/C(C)=C/CO)C(C)(C)CCC1 [all-trans-retinol, all-trans retinol]
level of all-trans-retinol (brainstem): 13.5 ± 4.1 pg/mg
level of all-trans-retinol (cerebellum): 38.9 ± 25.5 pg/mg
level of all-trans-retinol (cerebrum): 9.2±2.3 pg/mg tissue
